Test results published in PubChem BioAssay AID540276 (National Center for Advancing Translational Sciences (NCATS), 2011).
Hit rate of the full screen: of about 300,000 compounds, about 5,400 (1.8%) were called active. Inconclusive results, whose numbers are uncertain, are shown with a selection of clear calls. Calls come from the whole dose curve; tested in HEK293 cells. Potencies beside an inconclusive call are fits to weak or partial responses and may not hold up.

assay: qHTS for inhibitors of binding or entry into cells for Marburg Virus; details: Marburg virus pseudotyped entry inhibition, cell reporter; activity change, negative = inhibition: at 37.8 µM (top of the series) unless noted
% is set by controls: 0 for no effect and ±100 for the full control effect; potency is the fitted concentration of half-maximal effect.

SMILES	activity change, negative = inhibition	Potency
Cn1c(CN2CCCCC2)nc2cc(NC(=O)c3cccs3)ccc21	inactive: 5.36%	
CCOc1ccc2nc3cc(N=Nc4ccc(N)nc4N)ccc3c(N)c2c1	inactive: -17%	
Cc1nnc2c3ccccc3nc(N3CCN(c4ccccc4)CC3)n12		inconclusive: 2.51 µM [inhibitor, full curve]
CC(C)OC(=O)NCCOC(=O)Nc1ccccc1Cl		inconclusive: 7.94 µM [activator, partial curve, poor fit]
CN(C)N1C(=O)CC(N2CCCC2)C1=O (stereo not given)		inconclusive: 0.794 µM [inhibitor, full curve, poor fit]
O=C(/C=C/c1ccc([N+](=O)[O-])s1)N1CCCCC1		active: 8.91 µM
CS(=O)(=O)N1N=C(c2cccs2)CC1c1ccco1 (stereo not given)		inconclusive: 7.08 µM [activator, partial curve, poor fit]
CCOc1ccc2nc(NC(=O)CSc3nc4ccccc4c(=O)n3Cc3ccco3)sc2c1		inconclusive: 2.59 µM [inhibitor, full curve]
COc1cc(OC)c([C@@H]2O[C@H](CO)[C@@H](O)[C@H](O)[C@@H]2O)c(OC)c1		inconclusive: 3.35 µM [activator, partial curve, poor fit]
CCC(C)(C)c1ccc(OCCCC[n+]2cccc(C)c2)c(C(C)(C)CC)c1		inconclusive: 10 µM [inhibitor, single point]
COc1ccccc1-c1noc(-c2ccncc2)n1	inactive: -2.26%	
Cc1c(N2C(=O)C(C)SC23C(=O)Nc2ccccc23)c(=O)n(-c2ccccc2)n1C (stereo not given)	inactive: 13.7%	
COc1cc(C(=O)Nc2ccccc2N2CCCCC2)cc(OC)c1OC	inactive: -29.4%	
COc1ccc(S(=O)(=O)N2CCC(O)(c3ccc(Cl)cc3)CC2)cc1		inconclusive: 28.2 µM [inhibitor, single point]
Cc1cccc(C(=O)NCC(=O)NNC(=O)c2ccccc2O)c1	inactive: -7.52% [at 46.1 µM]	
COc1cccc(N2CCN(c3cnc4ccccc4n3)CC2)c1		inconclusive: 1.58 µM [activator, partial curve, poor fit]
COc1ccccc1N1CCN(C2CCCN(Cc3ccccc3OCCO)C2)CC1 (stereo not given)		inconclusive: 35.5 µM [inhibitor, single point]
Cc1ccccc1C1c2[nH]c3ccccc3c2CCN1C(=O)c1ccc(=O)n(C)n1 (stereo not given)		inconclusive: 35.5 µM [inhibitor, single point]
C=C(C)COc1ccc(-c2ncnc(C(F)(F)F)c2-c2ccccc2)c(O)c1		inconclusive: 15.8 µM [inhibitor, partial curve, poor fit]
COC(=O)[C@H]1[C@H](CCc2ccccc2)NC(=O)N(Cc2ccccc2)[C@H]1C	inactive: -14.7% [at 14.2 µM]	
COc1ccc(CCNCc2ccc3c(c2)n(C)c(=O)n3C)cc1		inconclusive: 8.91 µM [inhibitor, partial curve, poor fit]
Cc1ccc(C)c(OCCn2c(=O)c3c(ncn3C3CCCC3)n(Cc3ccccc3)c2=O)c1	inactive: 4.5%	
O=C(CCS(=O)(=O)c1cc(Br)cc2c1N(C(=O)C1CC1)CC2)N1CCN(c2ccccc2)CC1	inactive: 21.8% [at 46.1 µM]	

SMILES	activity change, negative = inhibition	Potency
CCOc1cc(C2C(C(=O)OC)=C(C)N=C3SC(C)C(=O)N32)ccc1OC(C)=O (stereo not given)	inactive: -10.1%	
O=C(c1ccc([N+](=O)[O-])cc1)n1nc(-c2ccccc2)nc1NCc1ccccc1		inconclusive: 2.82 µM [activator, single point]
O=C(/C=N/O)Nc1cccnc1		inconclusive: 10 µM [activator, single point]
COc1ccc(C(=O)Nc2cccc(NC(C)=O)c2)cc1OC	inactive: 5.24%	
Cc1[nH]nc2c1C(c1ccccc1F)CC(=O)N2 (stereo not given)	inactive: 17.2%	
O=S(=O)(c1cccs1)N1CCN(CC(O)COC2CCCc3ccccc32)CC1 (stereo not given)	inactive: -9.08%	
COc1ccc(OC)c(CCNC(=O)c2cnn(-c3ccccc3)c2-n2cccc2)c1		inconclusive: 7.08 µM [inhibitor, partial curve, poor fit]
CSc1ccccc1C(=O)Nc1nc2ccccc2[nH]1		inconclusive: 3.98 µM [activator, partial curve, poor fit]
COc1ccccc1NS(=O)(=O)c1cccc(C(=O)N/N=C/c2cn(-c3ccccc3)nc2-c2ccccc2)c1		inconclusive: 28.2 µM [inhibitor, single point]
O=C(N=Nc1c(O)[nH]c2ccccc12)c1ccccc1NS(=O)(=O)c1cccs1		inconclusive: 0.1 µM [activator, full curve, poor fit]
Cc1ccc(S(=O)(=O)Nc2ccc(-c3nnc(SCC#N)n3C)cc2)cc1		inconclusive: 0.562 µM [inhibitor, full curve, poor fit]
Clc1ccc(OCCCCN2CCCCC2)cc1		inconclusive: 20 µM [inhibitor, partial curve, poor fit]
CCOc1ccccc1NC1=CC(=O)CC(c2ccccc2)C1 (stereo not given)		inconclusive: 12.6 µM [inhibitor, single point]
O=C(Nc1nc(-c2ccccc2)nc2ccccc12)c1ccc(F)cc1		inconclusive: 10 µM [inhibitor, partial curve, poor fit]
Oc1ccccc1/C=N/NC(=S)NC1CC2CC1C1C=CCC21 (stereo not given)		inconclusive: 12.6 µM [inhibitor, partial curve, poor fit]
COc1ccccc1CNC1CCCc2ccccc21 (stereo not given)		inconclusive: 15.8 µM [inhibitor, single point]
Cc1nc(Nc2nc3ccccc3o2)nc(C)c1C		inconclusive: 11.2 µM [inhibitor, single point]
CC(=O)O/N=C/c1c(N2CCOCC2)n(C)c2ccccc12		inconclusive: 29.1 µM [inhibitor, single point]
O=C(c1ccc(Cl)nc1)N1CCC(Cc2ccccc2)CC1	inactive: -0.135% [at 46.1 µM]	
CC(O)CNCCCOc1ccc(Cl)cc1C(C)(C)C (stereo not given)		inconclusive: 7.94 µM [inhibitor, partial curve, poor fit]
CCOc1ccc(NC(=O)CCN2C(=S)NC(C)(C)CC2C)cc1 (stereo not given)	inactive: 0.755%	
C1=C(CCNCC2CCCCC2)CCCC1		inconclusive: 12.6 µM [inhibitor, single point]

Quoted from the listing.
For Potency, CSc1ccccc1C(=O)Nc1nc2ccccc2[nH]1 is entered as inconclusive: 3.98 µM [activator, partial curve, poor fit]
For Potency, COc1ccccc1NS(=O)(=O)c1cccc(C(=O)N/N=C/c2cn(-c3ccccc3)nc2-c2ccccc2)c1 is entered as inconclusive: 28.2 µM [inhibitor, single point]
For Potency, C1=C(CCNCC2CCCCC2)CCCC1 is entered as inconclusive: 12.6 µM [inhibitor, single point]
